Data from PMC3598860.
These are yes or no findings as the source states them, for the method shown. In cells and extracts the contact can be indirect. Some results given as binding are weak or reduced against the parent protein; the word gives no strength. Tags and fused reporters may be left off the sequences shown.

Protein sequences, listed by entry. Tags and fused reporters are not part of them.
UniProt Q13616: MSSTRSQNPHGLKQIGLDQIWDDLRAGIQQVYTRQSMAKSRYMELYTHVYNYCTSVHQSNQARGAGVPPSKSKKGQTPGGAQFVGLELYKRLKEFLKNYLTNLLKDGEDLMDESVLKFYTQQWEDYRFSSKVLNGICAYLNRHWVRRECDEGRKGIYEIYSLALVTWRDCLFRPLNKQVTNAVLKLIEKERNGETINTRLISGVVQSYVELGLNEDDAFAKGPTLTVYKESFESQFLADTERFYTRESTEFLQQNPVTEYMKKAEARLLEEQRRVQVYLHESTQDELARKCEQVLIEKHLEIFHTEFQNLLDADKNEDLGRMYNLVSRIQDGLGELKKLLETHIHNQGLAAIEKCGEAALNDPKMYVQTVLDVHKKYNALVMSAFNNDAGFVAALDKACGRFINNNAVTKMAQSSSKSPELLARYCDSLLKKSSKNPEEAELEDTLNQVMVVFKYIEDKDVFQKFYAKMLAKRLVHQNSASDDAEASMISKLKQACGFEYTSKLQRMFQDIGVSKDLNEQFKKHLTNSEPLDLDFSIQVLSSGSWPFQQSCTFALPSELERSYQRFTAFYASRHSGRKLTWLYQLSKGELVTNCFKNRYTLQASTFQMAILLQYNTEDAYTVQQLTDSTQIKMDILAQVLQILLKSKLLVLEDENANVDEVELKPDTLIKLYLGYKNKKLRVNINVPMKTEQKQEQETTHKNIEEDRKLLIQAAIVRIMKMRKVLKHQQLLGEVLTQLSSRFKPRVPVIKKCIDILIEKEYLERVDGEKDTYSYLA

T1: Flag-Brap2 WT (BRCA1-associated protein 2) (human) (UniProt Q7Z569)
T1 sequence: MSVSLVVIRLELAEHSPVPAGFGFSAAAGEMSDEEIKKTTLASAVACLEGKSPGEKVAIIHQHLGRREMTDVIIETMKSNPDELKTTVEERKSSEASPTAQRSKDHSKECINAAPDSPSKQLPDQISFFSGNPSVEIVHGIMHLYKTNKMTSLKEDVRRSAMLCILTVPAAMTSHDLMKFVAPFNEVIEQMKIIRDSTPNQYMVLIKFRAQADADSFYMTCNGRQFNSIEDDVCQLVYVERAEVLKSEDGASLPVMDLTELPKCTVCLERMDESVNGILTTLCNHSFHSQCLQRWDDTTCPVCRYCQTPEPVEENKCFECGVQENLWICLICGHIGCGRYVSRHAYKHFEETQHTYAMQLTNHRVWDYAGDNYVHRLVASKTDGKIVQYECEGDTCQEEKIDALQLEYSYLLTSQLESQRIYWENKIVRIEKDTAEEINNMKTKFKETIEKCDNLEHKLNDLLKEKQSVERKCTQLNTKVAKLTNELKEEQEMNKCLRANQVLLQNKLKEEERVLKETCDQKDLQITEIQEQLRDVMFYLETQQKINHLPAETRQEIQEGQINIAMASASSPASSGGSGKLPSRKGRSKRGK

T2: HA-Brap2 WT (human) (UniProt Q7Z569)
T2 sequence: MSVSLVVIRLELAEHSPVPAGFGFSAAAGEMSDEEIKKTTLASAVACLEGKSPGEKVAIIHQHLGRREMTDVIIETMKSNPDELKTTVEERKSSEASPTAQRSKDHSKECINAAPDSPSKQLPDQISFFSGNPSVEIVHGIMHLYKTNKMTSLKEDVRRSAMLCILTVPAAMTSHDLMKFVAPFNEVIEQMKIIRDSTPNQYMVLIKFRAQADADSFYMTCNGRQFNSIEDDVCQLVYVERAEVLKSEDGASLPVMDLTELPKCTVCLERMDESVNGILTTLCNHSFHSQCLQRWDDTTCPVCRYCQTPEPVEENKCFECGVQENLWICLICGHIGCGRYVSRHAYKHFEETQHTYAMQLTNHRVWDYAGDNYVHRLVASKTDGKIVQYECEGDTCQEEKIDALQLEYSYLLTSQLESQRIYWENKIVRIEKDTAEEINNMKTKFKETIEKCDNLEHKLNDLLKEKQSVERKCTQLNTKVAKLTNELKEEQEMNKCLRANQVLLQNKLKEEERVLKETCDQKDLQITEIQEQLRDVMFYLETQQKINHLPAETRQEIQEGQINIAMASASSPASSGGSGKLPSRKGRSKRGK

B1: Flag-Brap2 WT (BRCA1-associated protein 2) (protein, UniProt Q7Z569 1-592)
chain: MSVSLVVIRLELAEHSPVPAGFGFSAAAGEMSDEEIKKTTLASAVACLEGKSPGEKVAIIHQHLGRREMTDVIIETMKSNPDELKTTVEERKSSEASPTAQRSKDHSKECINAAPDSPSKQLPDQISFFSGNPSVEIVHGIMHLYKTNKMTSLKEDVRRSAMLCILTVPAAMTSHDLMKFVAPFNEVIEQMKIIRDSTPNQYMVLIKFRAQADADSFYMTCNGRQFNSIEDDVCQLVYVERAEVLKSEDGASLPVMDLTELPKCTVCLERMDESVNGILTTLCNHSFHSQCLQRWDDTTCPVCRYCQTPEPVEENKCFECGVQENLWICLICGHIGCGRYVSRHAYKHFEETQHTYAMQLTNHRVWDYAGDNYVHRLVASKTDGKIVQYECEGDTCQEEKIDALQLEYSYLLTSQLESQRIYWENKIVRIEKDTAEEINNMKTKFKETIEKCDNLEHKLNDLLKEKQSVERKCTQLNTKVAKLTNELKEEQEMNKCLRANQVLLQNKLKEEERVLKETCDQKDLQITEIQEQLRDVMFYLETQQKINHLPAETRQEIQEGQINIAMASASSPASSGGSGKLPSRKGRSKRGK
B2: Flag-Brap2 KR (lysine-432 replaced with arginine) (protein, UniProt Q7Z569 1-592)
chain: MSVSLVVIRLELAEHSPVPAGFGFSAAAGEMSDEEIKKTTLASAVACLEGKSPGEKVAIIHQHLGRREMTDVIIETMKSNPDELKTTVEERKSSEASPTAQRSKDHSKECINAAPDSPSKQLPDQISFFSGNPSVEIVHGIMHLYKTNKMTSLKEDVRRSAMLCILTVPAAMTSHDLMKFVAPFNEVIEQMKIIRDSTPNQYMVLIKFRAQADADSFYMTCNGRQFNSIEDDVCQLVYVERAEVLKSEDGASLPVMDLTELPKCTVCLERMDESVNGILTTLCNHSFHSQCLQRWDDTTCPVCRYCQTPEPVEENKCFECGVQENLWICLICGHIGCGRYVSRHAYKHFEETQHTYAMQLTNHRVWDYAGDNYVHRLVASKTDGKIVQYECEGDTCQEEKIDALQLEYSYLLTSQLESQRIYWENKIVRIERDTAEEINNMKTKFKETIEKCDNLEHKLNDLLKEKQSVERKCTQLNTKVAKLTNELKEEQEMNKCLRANQVLLQNKLKEEERVLKETCDQKDLQITEIQEQLRDVMFYLETQQKINHLPAETRQEIQEGQINIAMASASSPASSGGSGKLPSRKGRSKRGK

How the values were obtained:
Test in all cases: co-IP; transfected HEK293 or HEK293T cells; lysis in 20 mM Tris-HCl pH 7.5, 150 mM NaCl, 1 mM EDTA, 0.5% NP-40; anti-Flag M2 agarose or anti-HA agarose, 2 hours at 4°C; immunoblot; in some panels cells treated with MLN4924, MG132 or 5 ng/ml TNF-α
[1] = biological target: T1, Flag-Brap2 WT (BRCA1-associated protein 2) (human)
HA-Cul1 = HA-Cul1 (UniProt Q13616)
HA-Brap2 WT (human) = biological target: T2, HA-Brap2 WT (human)

| binding [1] | binding (HA-Cul1) | binding (HA-Brap2 WT (human)) | Binder |
| --- | --- | --- | --- |
| binds | binds |  | B1 |
|  |  | binds | B2 |
